Reference: PubChem BioAssay AID1259308 (NCATS, 2017)

- Purpose: 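Genes whose loss raises luciferase production in HEK293 cells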 (primary screen)
- Cell system: human HEK293 embryonic kidney cells stably expressing firefly luciferase (HEK-CMV-Luc2-Hygro)
- Reagent: single siRNA against human genes, 0.8 pmol siRNA per well
- Time to read-out: 72 h
- Measured: 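Luciferase light (ONE-Glo) measured on one replicate plate set and viability (CellTiter-Glo) on the other, scaled to a negative control siRNA, with robust z-scores and luciferase per cell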
- Reading the numbers: total luciferase, z-score: higher = more reporter protein produced
- Hit rule: 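An siRNA counts as active if its total luciferase robust z-score exceeds 3; genes with two or more such siRNAs out of three were retested with fresh siRNAs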
- Calls: active = raised luciferase; inactive = no rise
Shown is a random part of about 59,000 deposited reagents. Over the whole deposit, about 1,510 (2.6%) are marked active. 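Calls use total luciferase alone and ignore viability, so some active siRNAs may act by altering cell number.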 The numbers tell different reagents against one gene apart. Not all columns of the deposit are shown.

With knock-down of SRD5A3 (GeneID 79644) #1, the screen gave total luciferase, z-score 1.66; inactive.
Knock-down of SRD5A3 (GeneID 79644) #2 gave: total luciferase, z-score 0.162; inactive.
SRD5A3 (GeneID 79644) #3 gave total luciferase, z-score -2.55; inactive.
OR14J1 (GeneID 442191) #1 showed total luciferase, z-score 0.0585; inactive.
After knock-down of OR14J1 (GeneID 442191) #2, the record shows total luciferase, z-score -0.954; inactive.
After knock-down of OR14J1 (GeneID 442191) #3, the record shows total luciferase, z-score -0.542; inactive.
For HAPSTR2 (GeneID 389895) #1, the values are total luciferase, z-score 0.619; inactive.
Depletion of HAPSTR2 (GeneID 389895) #2 gave: total luciferase, z-score 0.33; inactive.
With knock-down of HAPSTR2 (GeneID 389895) #3, the record shows total luciferase, z-score -0.28; inactive.
Depletion of GRIK2 (GeneID 2898) #1 came out at: total luciferase, z-score -0.23; inactive.
Against GRIK2 (GeneID 2898) #2 the deposit lists total luciferase, z-score 0.629; inactive.
Against GRIK2 (GeneID 2898) #3, the entry reads total luciferase, z-score 2.19; inactive.

Entries listed so far whose target name starts with H or h:
HAPSTR2 (GeneID 389895) #1 | total luciferase, z-score: 0.619; activity call: inactive
HAPSTR2 (GeneID 389895) #2 | total luciferase, z-score: 0.33; activity call: inactive
HAPSTR2 (GeneID 389895) #3 | total luciferase, z-score: -0.28; activity call: inactive

The results go on.
Depletion of PNPO (GeneID 55163) #1 resulted in: total luciferase, z-score 1.97; inactive.
With knock-down of PNPO (GeneID 55163) #2 the results were total luciferase, z-score 4.12; active.
PNPO (GeneID 55163) #3 gave total luciferase, z-score -0.804; inactive.
With knock-down of LYPLA2P2 (GeneID 388499) #1 the results were total luciferase, z-score 0.952; inactive.
LYPLA2P2 (GeneID 388499) #2 gave total luciferase, z-score 0.432; inactive.
Against LYPLA2P2 (GeneID 388499) #3, the values are total luciferase, z-score -0.868; inactive.
After knock-down of H2BC21 (GeneID 8349) #1 the results were total luciferase, z-score -0.949; inactive.
With knock-down of H2BC21 (GeneID 8349) #2, the record shows total luciferase, z-score 0.838; inactive.
H2BC21 (GeneID 8349) #3 scored total luciferase, z-score -0.527; inactive.
